Where “and” joins values, the source holds several entries; their conditions need not be identical. Equal entries are not always repeated. About 3,700 (1.2%) of roughly 300,000 compounds were called active. Inconclusive results, whose numbers are uncertain, are shown with a selection of clear calls. Calls come from the whole dose curve; tested in HEK293 cells. Where the call is inconclusive, the potency comes from a doubtful curve fit.
Assay: qHTS for Inhibitors of binding or entry into cells for Lassa Virus; note: nearly all actives have a fitted effect of over 50% in size
Details: Lassa virus pseudotype entry inhibition, cell reporter; series mostly up to 37.9 µM
Potency is the fitted concentration of half-maximal effect.

Structure (SMILES) | Potency
CCCOc1ccc(-c2nnc(-c3ccco3)o2)cc1 | active: 8.2 µM
Cc1ccc(S(=O)(=O)N(C(=O)c2ccncc2)c2ccc(OC(=O)c3ccncc3)cc2)cc1 | inactive
Cc1cc(S(=O)(=O)N(Cc2ccc(C(C)(C)C)cc2)Cc2cccs2)ccc1-n1cnnn1 | inconclusive: 9.2 µM [inhibitor, partial curve, poor fit]
COc1cc2c(c(OC)c1OC)-c1ccc(NC(=O)c3ccccc3)c(=O)cc1[C@@H](NC(C)=O)CC2 | inactive
COCC(=O)Nc1nc(-c2ccc(-c3ccccc3)cc2)cs1 | inconclusive: 0.631 µM [activator, full curve]
C=CCN(CC=C)S(=O)(=O)c1ccc(NC(=S)NC(=O)c2ccco2)cc1 | inconclusive: 1.78 µM [inhibitor, full curve]
Cc1ccccc1-n1nc(CSc2nc3ccccc3[nH]2)c(-c2ccccc2)c1N | inconclusive: 25.1 µM [inhibitor, partial curve, poor fit]
COc1ccc(Oc2cn[nH]c2-c2ccc(O)cc2O)cc1 | inconclusive: 25.1 µM [inhibitor, single point]
Cc1ccc(C(=O)Nc2ccccc2N2CCN(C(=O)C(C)C)CC2)cc1 | inconclusive: 23.1 µM [inhibitor, single point]
CC(NCC1COc2ccccc2O1)C1COc2ccccc2O1 (stereo not drawn) | inconclusive: 12.6 µM [inhibitor, single point]
CCOC(=O)CCSc1nc(C)c2ccccc2n1 | inactive
COC(=O)C1=C(C)NC(=O)/C1=C\c1cc(C)n(-c2c(C)cccc2C)c1C | inconclusive: 29.1 µM [inhibitor, single point]
CCN(CC)CCOC(=O)C1(C2CCCCC2)CCCCC1 | inconclusive: 25.9 µM [inhibitor, single point] and inconclusive: 18.3 µM [inhibitor, single point]
CCCCN(CCCC)Cc1ccc(C(=O)NNC(=O)Nc2ccc(Cl)cc2)o1 | inconclusive: 25.1 µM [inhibitor, single point]
COc1cc(C=O)ccc1OCCOc1ccccc1[N+](=O)[O-] | inconclusive: 6.31 µM [activator, partial curve, poor fit]
O=[N+]([O-])c1ccc(NS(=O)(=O)N2CCOCC2)cc1 | inconclusive: 35.5 µM [activator, partial curve, poor fit]
Cc1ccc(NC(=O)c2ccc3snnc3c2)cc1Cl | inactive
CCc1ccc(S(=O)(=O)c2nnn(-c3ccc(F)cc3)c2N)cc1 | inactive
CCSc1nnc(-c2cccc(S(=O)(=O)N(C)C)c2)n1-c1cc(OC)ccc1OC | inconclusive: 0.103 µM [inhibitor, full curve, poor fit]
O=C(NCCC(=O)N1CCc2ccccc21)c1ccco1 | inconclusive: 12.6 µM [activator, partial curve, poor fit]
C#CC[N+]1(CC#Cc2ccc(C)cc2)CCCCC1 | inactive

In another format: 4 of the compounds above.

| Structure (SMILES) | Potency |
| --- | --- |
| COCC(=O)Nc1nc(-c2ccc(-c3ccccc3)cc2)cs1 | inconclusive: 0.631 µM [activator, full curve] |
| CCN(CC)CCOC(=O)C1(C2CCCCC2)CCCCC1 | inconclusive: 25.9 µM [inhibitor, single point] and inconclusive: 18.3 µM [inhibitor, single point] |
| O=[N+]([O-])c1ccc(NS(=O)(=O)N2CCOCC2)cc1 | inconclusive: 35.5 µM [activator, partial curve, poor fit] |
| C#CC[N+]1(CC#Cc2ccc(C)cc2)CCCCC1 | inactive |

(further entries)

Structure (SMILES) | Potency
NC(=O)Cn1nnc(-c2ccccc2NC(=O)c2cnccn2)n1 | inconclusive: 1.26 µM [activator, single point]
CCc1noc(C)c1C(=O)N1CCN(S(=O)(=O)c2ccc(Br)cc2Cl)CC1 | inconclusive: 1.26 µM [activator, single point]
CCCNC(=O)C(=O)NCC(c1ccc2c(c1)OCO2)N1CCOCC1 (stereo not drawn) | inactive
COc1ccc(OCc2ccc(-c3nc(C#N)c(N4CCC(C)CC4)o3)o2)cc1 | inconclusive: 0.708 µM [inhibitor, full curve, poor fit]
O=c1c2cc(-c3ccccc3)sc2nc2n1N=C(c1cccs1)CS2 | inconclusive: 1.41 µM [inhibitor, partial curve, poor fit]
CC/C(=N\Nc1ccccc1[N+](=O)[O-])c1ccc(O)cc1 | inconclusive: 35.5 µM [inhibitor, single point]
Cc1ccc(/C=C/C(=O)NCc2ccncc2)cc1 | inconclusive: 3.55 µM [inhibitor, partial curve, poor fit]
Cc1cccc(OCC(=O)NCC2(N3CCN(C)CC3)CCCCC2)c1C | inactive
COc1ccc(C(C(=O)NCc2ccc(F)cc2)N(Cc2cccnc2)C(=O)c2snc(C(N)=O)c2N)cc1 (stereo not drawn) | inconclusive: 0.316 µM [activator, full curve, poor fit]
O=C(Cc1ccc(S(=O)(=O)N2CCOCC2)s1)Nc1cc(C(F)(F)F)ccc1N1CCCC1 | inconclusive: 35.5 µM [inhibitor, single point]
CC1(C)CC(=NOC(=O)c2ccccc2)CC(C)(C)N1 | inactive
c1ccc(CN2CCN(CCOCCOc3ccc4c(c3)CCC4)CC2)cc1 | inconclusive: 35.5 µM [inhibitor, single point]
CC(=O)Nc1ccc(C(=O)OCC(=O)Nc2ccc(Cl)cc2C(=O)c2ccccc2)cc1 | inconclusive: 16.4 µM [inhibitor, partial curve]
COc1ccc(-c2noc(-c3ccc(C)cc3)n2)cc1 | inconclusive: 35.5 µM [inhibitor, single point]
O=C(COC(=O)/C=C/c1ccc(Cl)cc1)NCCc1ccccc1 | inconclusive: 29.1 µM [activator, single point]
Cn1c(SCc2ccccc2)nnc1-c1ccc(O)cc1 | inconclusive: 3.55 µM [activator, partial curve]
N#CCC(N)=C(C#N)C#N | inactive
CCc1ccc(NC(=O)C2CCCN(S(=O)(=O)c3ccc4c(c3)CCCN4C(C)=O)C2)cc1 (stereo not drawn) | inconclusive: 25.1 µM [inhibitor, single point]
CCCN(CC1CC1)C(=O)COC(=O)c1[nH]c(C)c(C(=O)OCC)c1C | inconclusive: 5.17 µM [inhibitor, partial curve, poor fit]
CCOc1cc(-c2nnc(SCC(=O)NCc3ccccc3)nc2-c2ccc(OC)c(OCC)c2)ccc1OC | inconclusive: 3.55 µM [inhibitor, partial curve, poor fit]
Cn1nc(C(F)(F)F)c2cc(NC(=O)OCc3ccc(C(C)(C)C)cc3)sc21 | inconclusive: 10 µM [inhibitor, partial curve, poor fit]

Structure (SMILES) | Potency
Oc1c(Cl)cc(Cl)cc1/C=C/c1ccc2cccc(O)c2n1 | inconclusive: 14.1 µM [inhibitor, single point]
Cc1nc(NC(=O)c2oc3ccccc3c2C)sc1C(=O)N(C)C | inactive
Cc1ccc(-c2csc3ncnc(Oc4ccc5c(C)cc(=O)oc5c4)c23)cc1 | inconclusive: 15.8 µM [inhibitor, single point]
Cc1cc2nc(N)sc2cc1C | inconclusive: 35.5 µM [inhibitor, single point]
O=C1C2CC=CCC2C(=O)N1c1ccc(NCCc2ccc(O)cc2)c([N+](=O)[O-])c1 (stereo not drawn) | inconclusive: 0.231 µM [inhibitor, full curve, poor fit]
CCN(CC)C(=O)C(=O)N/N=C/c1ccc(F)cc1 | inactive
COc1ccccc1N1CCN(S(=O)(=O)c2ccc3[nH]c4c(c3c2)CCCC4)CC1 | inconclusive: 31.6 µM [inhibitor, single point]
C=CCOc1c(CNc2cccc(C(=O)O)c2)cccc1OC | inconclusive: 1.26 µM [activator, single point]
CC/C(=N\NC(=O)c1csc(C)c1C)c1cccs1 | inconclusive: 11.2 µM [inhibitor, partial curve]
Cc1ccc2c(CN3CCCc4ccccc43)cc(=O)oc2c1C | inconclusive: 11.2 µM [inhibitor, partial curve, poor fit]
Cc1ccc(O)c(CNc2cnc3ccccc3c2)c1 | inconclusive: 35.5 µM [inhibitor, single point]
Cc1cccc2[nH]c(-c3ccc(NC(=O)c4ccco4)cc3)nc12 | inconclusive: 35.5 µM [inhibitor, single point]
CCOC(=O)c1ccc(N2CCN(c3ccc(F)cc3)CC2)c(NC(=O)Nc2cccc(OC)c2)c1 | inconclusive: 3.16 µM [inhibitor, partial curve, poor fit]
CCN1CCN(S(=O)(=O)c2ccc(C(=O)Nc3ccccc3)cc2)CC1 | inconclusive: 0.631 µM [activator, full curve, poor fit]
O=[N+]([O-])c1cccc2nc3ccccc3c(NCCCn3ccnc3[N+](=O)[O-])c12 | inconclusive: 0.282 µM [inhibitor, full curve, poor fit]
N/C(=N\N=C\c1ccc(O)cc1)c1nonc1N | inconclusive: 11.6 µM [inhibitor, partial curve, poor fit]
CCc1cc(C(=O)NC2CCCc3c2cnn3-c2cccc(C)c2C)n(C)n1 (stereo not drawn) | inconclusive: 31.6 µM [inhibitor, partial curve, poor fit]
O=C(CN1C(=O)C2C3C=CC(C3)C2C1=O)Nc1ccc2c(c1)OCCO2 (stereo not drawn) | inconclusive: 2 µM [activator, partial curve, poor fit]
CCN(CC)S(=O)(=O)c1cc(-c2nn(C)c(=O)c3ccccc23)ccc1C | inconclusive: 35.5 µM [inhibitor, partial curve, poor fit]
O=C(Nc1ccc(Cl)cc1Cl)c1cc(S(=O)(=O)N2CCC3(CC2)OCCO3)ccc1F | inconclusive: 35.5 µM [activator, single point]
CCOc1cccc(NC(=O)C2CC(=O)N(C)C(=Nc3cccc(OC)c3)S2)c1 (stereo not drawn) | inconclusive: 11.2 µM [inhibitor, single point]
